The source of these data is article PMC7337937, “CryoEM structures of human CMG–ATPγS–DNA and CMG–AND-1 complexes” (Nucleic Acids Research, 2020).

In this assay the target is human MCM3 (853 aa isoform) (human). The assay can be described thus: cryo-EM structure; CMGA: AND-1 co-expressed with the CMG subunits in HEK293-F, co-purified; 1 mM ATPγS added, glutaraldehyde cross-linked before grid preparation; 6.77 Å map, CMG structure and AND-1 trimer crystal structure docked as rigid bodies; both purified.

Results are given in words; binding and its absence hold for the method and conditions named. Binding seen in cells or lysates may run through a third protein.

B1: human AND-1, recombinant full length (natural protein, UniProt O75717 1-1129, looked up)
chain: MPATRKPMRYGHTEGHTEVCFDDSGSFIVTCGSDGDVRIWEDLDDDDPKFINVGEKAYSCALKSGKLVTAVSNNTIQVHTFPEGVPDGILTRFTTNANHVVFNGDGTKIAAGSSDFLVKIVDVMDSSQQKTFRGHDAPVLSLSFDPKDIFLASASCDGSVRVWQISDQTCAISWPLLQKCNDVINAKSICRLAWQPKSGKLLAIPVEKSVKLYRRESWSHQFDLSDNFISQTLNIVTWSPCGQYLAAGSINGLIIVWNVETKDCMERVKHEKGYAICGLAWHPTCGRISYTDAEGNLGLLENVCDPSGKTSSSKVSSRVEKDYNDLFDGDDMSNAGDFLNDNAVEIPSFSKGIINDDEDDEDLMMASGRPRQRSHILEDDENSVDISMLKTGSSLLKEEEEDGQEGSIHNLPLVTSQRPFYDGPMPTPRQKPFQSGSTPLHLTHRFMVWNSIGIIRCYNDEQDNAIDVEFHDTSIHHATHLSNTLNYTIADLSHEAILLACESTDELASKLHCLHFSSWDSSKEWIIDLPQNEDIEAICLGQGWAAAATSALLLRLFTIGGVQKEVFSLAGPVVSMAGHGEQLFIVYHRGTGFDGDQCLGVQLLELGKKKKQILHGDPLPLTRKSYLAWIGFSAEGTPCYVDSEGIVRMLNRGLGNTWTPICNTREHCKGKSDHYWVVGIHENPQQLRCIPCKGSRFPPTLPRPAVAILSFKLPYCQIATEKGQMEEQFWRSVIFHNHLDYLAKNGYEYEESTKNQATKEQQELLMKMLALSCKLEREFRCVELADLMTQNAVNLAIKYASRSRKLILAQKLSELAVEKAAELTATQVEEEEEEEDFRKKLNAGYSNTATEWSQPRFRNQVEEDAEDSGEADDEEKPEIHKPGQNSFSKSTNSSDVSAKSGAVTFSSQGRVNPFKVSASSKEPAMSMNSARSTNILDNMGKSSKKSTALSRTTNNEKSPIIKPLIPKPKPKQASAASYFQKRNSQTNKTEEVKEENLKNVLSETPAICPPQNTENQRPKTGFQMWLEENRSNILSDNPDFSDEADIIKEGMIRFRVLSTEERKVWANKAKGETASEGTEAKKRKRVVDESDETENQEEKAKENLNLSKKQKPLDFSTNQKLSAFAFKQE
notes: AND-1, human, full-length ORF from IMAGE cDNA clone 6514641; The tag is 2xStrepII-TEV; no TEV cleavage step is described; Only the SepB domain is visible in the map; also called AND-1 trimer; source: HEK293-F, transient co-transfection with the CMG subunits, co-purified as CMGA
Turning to B1, the binding result is on record as “no binding”.
